No constants are given. Whether binding was seen depends on the method and setting. Some entries that bind do so weakly or less than the wild type.
Target: avidin (UniProt P02701)
Test: confocal fluorescence microscopy; avidin-immobilized PLA-PEG-biotin films exposed to the peptide, washed, then probed with biotin-FITC

Sequences of proteins named here, by UniProt entry; tags and fusion partners are left off. Residues count along the entry.
UniProt P02701, residues 25-152: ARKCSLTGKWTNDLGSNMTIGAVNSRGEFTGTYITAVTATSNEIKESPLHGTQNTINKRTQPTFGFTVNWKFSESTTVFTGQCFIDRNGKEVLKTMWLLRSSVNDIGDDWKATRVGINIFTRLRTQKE

GGGGGGGGGGGGRGDS (biotin at the N-terminus (printed as biotin-(G)11-GRGDS)) [biotin-(G)11-GRGDS]
binding: binds
